Results on 30 targets are retold here after the supplement of paper PMC10849652.

Some of the results follow. Residues, ends and D or L forms follow the SMILES beside them. *: point of attachment. Cbz = O=C(OCc1ccccc1)*

Compound in one test: C=CC(=O)N1CCC[C@@H](n2nc(-c3ccc(Oc4ccccc4)cc3)c3c(N)ncnc32)C1 [ibrutinib]
Kind of test: log2 fold change, soluble protein after heating vs DMSO (PISA); higher = thermal stabilisation; K562 cells, 10 uM, 30 min; active = over 0.2 and 3.5 SD of the protein, either way, in both replicates (recomputed). In outline: (§1)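 Soluble protein was quantified by TMTpro 16plex LC-MS/MS after channel sums were equalised. It was obtained as the supernatant after 21,000xg for 90 min from pooled aliquots of K562 cells (2×10^6 cells/mL, 10 μM compound, 30 min) heated for 3 min across 48°C-58°C and extracted in PBS with 0.5% NP-40 at 4°C. Thermal stability values are relative to control samples and come from duplicates. They are given as log2 fold changes.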
As to PRNP (UniProt P04156), the log2 fold change was inactive: -0.047.
PRKRA (UniProt O75569): the log2 fold change is inactive: 0.07.
Still for that read-out and setting: the result for PPP1R9A isoform 3 (UniProt Q9ULJ8) reads inactive: -0.136; that for PPP2R5C isoform 2 (UniProt Q13362), inactive: -0.038; that for PRR4 (UniProt Q16378), inactive: 0.006.
As for PRKD2 (UniProt M0R346), the log2 fold change is inactive: -0.096.
The same measure, in the same setting: the result for PPP2R1B (UniProt H0YDG7) reads inactive: 0.118; that for PRKX (UniProt P51817), inactive: -0.005.
Regarding PPP1R3D (UniProt O95685), the log2 fold change was inactive: -0.113.
For PPP1R12B isoform 6 (UniProt O60237), the log2 fold change is inactive: 0.075.
PPP1R13L (UniProt Q8WUF5): the log2 fold change is inactive: 0.191.
In the case of PROSER3 (UniProt Q2NL68), the log2 fold change was inactive: 0.18.
PPP1CC (UniProt F8W1A0): the log2 fold change is inactive: -0.132.

Compound in a further test: CC(=O)c1cnc2ccc(-c3cc(Cl)c(O)c(Cl)c3)nc2c1N[C@H]1CC[C@H](CN(C)C)CC1
Described as above. The method, boiled down: as §1
Consider PRKRA (UniProt O75569), for which the log2 fold change is inactive: 0.143.
For the target PRR4 (UniProt Q16378), the log2 fold change is inactive: 0.044.
Turning to PRDM2 (UniProt Q13029), the log2 fold change was inactive: -0.037.
On to PRC1 (UniProt O43663), for which the log2 fold change was inactive: -0.189.
PRIMPOL (UniProt Q96LW4): the log2 fold change was inactive: -0.125.
As to PROSER3, A0A2R8Y8D9, the log2 fold change was inactive: -0.022.
Take PPP2R3B (UniProt Q9Y5P8): the log2 fold change was inactive: 0.105.
Regarding PRR14L (UniProt Q5THK1), the log2 fold change was inactive: -0.104.
For the target PPP2R2A, A0A590UJJ1, the log2 fold change was inactive: 0.148.

Compound in another test: CC(C)(C)Cn1c(N)nc2ccc(-c3[nH]c(C(C)(C)C)nc3-c3ccc(F)cc3)nc21 [ralimetinib]
The test is described as above. The method, boiled down: as §1
As to PRKRA (UniProt O75569), the log2 fold change was inactive: 0.207.
Same read-out and setting: the result for PPP1R9A isoform 3 (UniProt Q9ULJ8) reads inactive: -0.34; that for PPP2R5C isoform 2 (UniProt Q13362), inactive: 0.026; that for PRR4 (UniProt Q16378), inactive: 0.052.
PRDM2 (UniProt Q13029): the log2 fold change was inactive: 0.108.
As to PPP1R3D (UniProt O95685), the log2 fold change was inactive: 0.037.
For PROSER1 (UniProt Q86XN7), the log2 fold change was inactive: 0.022.
For PPP1R16A (UniProt Q96I34), the log2 fold change was inactive: 0.083.
On to PRRG1 (UniProt O14668), for which the log2 fold change is inactive: -0.15.

Compound in another test: CC(C)(O)CC(=O)NCCn1ccc2ncnc(Nc3ccc(Oc4cccc(C(F)(F)F)c4)c(Cl)c3)c21
The description is as above. The method, boiled down:
as §1
For the target PRKRA (UniProt O75569), the log2 fold change was inactive: 0.188.
For PPP1R9A isoform 3 (UniProt Q9ULJ8), the log2 fold change was inactive: 0.08.
Still for that read-out and setting: the value for PRKD2 (UniProt M0R346) was inactive: -0.273; that for PRDM2 (UniProt Q13029) was inactive: -0.011.
Consider PRR3 (UniProt P79522), for which the log2 fold change was inactive: 0.085.
Take PROSER3, A0A2R8Y8D9: the log2 fold change was inactive: 0.117.
With PPP1R13L (UniProt Q8WUF5), the log2 fold change was inactive: -0.112.
Turning to PPP2R3B (UniProt Q9Y5P8), the log2 fold change is inactive: 0.159.
With PPTC7 (UniProt Q8NI37), the log2 fold change was inactive: -0.102.
For PRADC1 (UniProt Q9BSG0), the log2 fold change was inactive: -0.05.

Compound in the next test: CC(C)C1=C2N=C(C=C(N2N=C1)NCC3=CC=CC=C3)NCCCCCCN
The description is as above. The method, boiled down: as §1
As to PRNP (UniProt P04156), the log2 fold change was inactive: 0.117.
As to PPP2R5C isoform 2 (UniProt Q13362), the log2 fold change was inactive: -0.146.
With PRKX (UniProt P51817), the log2 fold change was inactive: -0.274.
Consider PPP1R3D (UniProt O95685), for which the log2 fold change is inactive: 0.116.
In the case of PPP1R12B isoform 6 (UniProt O60237), the log2 fold change is inactive: -0.074.
Turning to PRR16 (UniProt Q569H4), the log2 fold change is inactive: -0.069.
As to PPP2CB (UniProt E5RHC1), the log2 fold change was inactive: 0.14.
On to PROSER3 (UniProt Q2NL68), for which the log2 fold change is inactive: -0.037.
With PRR12 (UniProt Q9ULL5), the log2 fold change is inactive: -0.261.

Compound in a further test: CC(C)C[C@@H](C=O)NC(=O)[C@H](CC(C)C)NC(=O)[C@H](CC(C)C)NC(=O)OCc1ccccc1
The description is as above. The method, boiled down:
as §1
For PRKRA (UniProt O75569), the log2 fold change is inactive: 0.111.
In the case of PPP1R9A isoform 3 (UniProt Q9ULJ8), the log2 fold change was inactive: 0.055.
Regarding PPP2R5C isoform 2 (UniProt Q13362), the log2 fold change is inactive: -0.095.
With PRR4 (UniProt Q16378), the log2 fold change is inactive: -0.154.
As to PRDM2 (UniProt Q13029), the log2 fold change is inactive: 0.076.
Take PPP1R3D (UniProt O95685): the log2 fold change was inactive: -0.06.
Take PROSER1 (UniProt Q86XN7): the log2 fold change is inactive: -0.017.
Consider PPP1R16A (UniProt Q96I34), for which the log2 fold change was inactive: -0.331.
Same read-out and setting: the result for PRRG1 (UniProt O14668) reads inactive: 0.046.

Compound in another test: CC(C)N(C[C@H]1O[C@@H](n2cnc3c(N)ncnc32)[C@H](O)[C@@H]1O)[C@H]1C[C@@H](CCc2nc3cc(C(C)(C)C)ccc3[nH]2)C1 [pinometostat]
The description is as above. In outline:
as §1
In the case of PRKRA (UniProt O75569), the log2 fold change was inactive: 0.308.
Take PPP1R9A isoform 3 (UniProt Q9ULJ8): the log2 fold change was inactive: 0.048.
Turning to PPP2R5C isoform 2 (UniProt Q13362), the log2 fold change is inactive: -0.017.
Regarding PRR4 (UniProt Q16378), the log2 fold change is inactive: 0.244.
On the same count and under the same terms, the value for PRDM2 (UniProt Q13029) was inactive: 0.074; that for PRR3 (UniProt P79522) was inactive: -0.002; that for PPP1R3D (UniProt O95685) was inactive: 0.061.
On to PRELID2 (UniProt Q8N945), for which the log2 fold change was inactive: 0.054.
Still for that read-out and setting: the result for PPTC7 (UniProt Q8NI37) reads inactive: 0.09; that for PRRG1 (UniProt O14668), inactive: 0.004.
Take PRADC1 (UniProt Q9BSG0): the log2 fold change was inactive: -0.244.
